The campaign covered roughly 31,000 sequences. About 1,400 (4.5%) were called active.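 How the source made its calls: active means median seed-adjusted z-score above 1 or below -1; inactive means the rest.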 Some of the results follow.
Assay: Novel Modifiers of Survival Motor Neuron (SMN) Protein: Gene Identification via Genome-wide siRNA Screen;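 further: luminescence tracks full-length SMN protein made from the SMN2 reporter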
Conditions: HEK293T SMN2-luciferase reporter, siRNA knockdown, 72 h; actives lie on both sides
How it was run: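 siRNA screen, 10418 genes ×3 siRNAs; 1 pmol/well, lipid reverse transfection into HEK293T SMN2-luc reporter line. 72 h, 37 °C, 5% CO2; ONE-Glo readout. Data: neg-ctrl normalized, log10, MAD; hit = MAD >1.0 or < -1.0.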

Sequence	median seed-adjusted z-score
GGCUAUCCUGGGUUUAUUUTT against ALKBH1	inactive: -0.087
GUUACUACAGGACCAUUAATT against MTMR1	inactive: -0.0204
CCGAUCAAGUGAACAUAGATT against AKAP4	inactive: 0.116
UGGAGGUUCUGGAUCCGAATT against ROR2	inactive: 0
GGGAGGUCUUAAACAAGGUTT against DCI	inactive: 0.469
AGCAGUCCCUUAAUAUUGATT against WISP2	inactive: -0.0731
GCGCUGUGAUGUUAUUGCATT against SUCLA2	inactive: -0.21
GAGUCUCAUUUGUCCAAUATT against PLA2G4C	inactive: 0.331
CCAGCGUACUGCUUCUGUUTT against CNR1	inactive: 0.0359
CUAAGAUGGAUAAAUCUAATT against KERA	inactive: 0.238
CACGGUCACUUUCAACAUUTT against C1QBP	inactive: 0.754
AUAUCAGGCUGGUUUACAATT against PLA2G15	inactive: 0
CCAUCUUGCUGAACCUGGATT against SLC26A6	inactive: 0.316
GCUGCGAUCAAGUACAUUATT against ASCL3	inactive: 0.0929
CCUGGGCCUUUAUCAGUAATT against PHC1	inactive: -0.615
GCAGCAAGAAGGUAGCACATT against ZNF598	inactive: -0.303
GAACCAGAAUUACAACAAATT against GPR75	inactive: 0
GAUAUGAGAGUGCAACUAATT against DIAPH1	inactive: 0.145
GACAUUGAAUCUCACCGAATT against CUBN	inactive: 0.0558
AAUGAUACCUCUGAAGUAATT against ZNF780A	inactive: 0.298
CGAGGUUACAGAGACAUCATT against PCSK2	inactive: -0.704
CAGCAUAUCUGUUUUCUGATT against CLPS	inactive: -0.799

Sequence	median seed-adjusted z-score
GAUGAUUGUUGGAUAUGCATT against CYB5R4	inactive: 0
CGAGAUGGACAUGAAGUCATT against NDUFS8	inactive: -0.467
GCAAGUUGGUAUUGGAAUATT against HOMEZ	inactive: -0.0614
GCAGACAGCUGAUGACUCUTT against ARHGEF18	inactive: 0.586
CCAAGAUGAGUAUAAAACATT against HRC	active: 1.06
GUUCCGACAAGGACACUGATT against SLC9A3R2	inactive: 0.165
CAGGUAAACCGGAACAAUATT against SLC11A2	inactive: -0.157
GGGAAAUACUGAACGCAAATT against CHRNB3	inactive: -0.0155
UGGUUAAUCUGAUAACUUCTT against WDFY3	inactive: -0.12
AUGUUAUCAUUGCUCCAUUTT against CAV2	inactive: -0.00895
GGUCAUUGGAUAAUUAAGATT against ZNF620	inactive: 0.172
GGCUACCUGCAUUCACUGATT against SGK1	inactive: -0.659
CCUGCCUGACGGUCACUUUTT against GAMT	inactive: -0.161
CCAUAGCAAUGGAGAUUGATT against ATP1A2	inactive: 0.248
ACUCACCACUGGUGCCUGATT against CLDN2	inactive: 0.865
GGAGAUUAUUGAAGAUGGATT against DNTT	inactive: 0.316
GAAUGUGCUCAUUCGGGAATT against AMHR2	inactive: 0.557
GAACCGCCUUUAACAGAUUTT against CDC5L	inactive: -0.628
CACUUACUCCUGACCAGUATT against B4GALT3	inactive: -0.138
GCACCAUCUAUGACUAUGATT against GPX5	inactive: 0.0205
GGACAAGUGUUAUCGCUUATT against MASTL	inactive: -0.195
GCAUGAGCCCAGAUGUGAATT against LIMK1	inactive: -0.428

Sequence	median seed-adjusted z-score
GCUGAAGAGUUUACCUAUATT against VWA5A	inactive: 0
GCGCGUCAAGCAGACUUUCTT against DUSP15	inactive: 0
GGACUCUGAUAGCAGUUCATT against UBE2Z	inactive: 0.0572
GCCUAUGAGUUUAUCAUGATT against ABCB4	inactive: 0
CUAGGGACCUAUUAAAAGATT against DHX30	inactive: 0.335
CAGCGCAAAUUUUCAACAATT against ARHGEF6	inactive: -0.0593
AGCUAAAUCUGGAGAUAUATT against EXOSC3	inactive: 0.569
GGACUUACGUGGAAGUAGATT against PLCB1	inactive: 0.0735
GCUAAUCAUUGAGUAUGCATT against KLHL10	inactive: 0.0708
GAUAGACACCCAAAUCGUATT against ADARB1	inactive: 0.375
GAAUGCAAGAUUUUCGAUUTT against USH2A	inactive: 0.0673
GGCGGUCAGUGCACAAUGATT against MXD3	inactive: 0.482
GGAGGAUCAAUUUAUCAGATT against VDAC2	inactive: 0.648
GCAACAACGGCUCCAUUUATT against SHKBP1	inactive: 0.345
AGAGGGUGAUAUCAAGGAATT against TAGAP	inactive: 0
CAGCCUUAAUGGACACGAATT against MFGE8	inactive: 0.0367
GCCUGGUCAAUAUCCGAAATT against RNF157	inactive: 0.0197
GCUCUAAGGUUACGGAAGATT against MCOLN2	inactive: -0.0234
GCGGGAGCAUUAUCUCAAATT against ZNF341	inactive: 0.356
CCAUGACUCUAGGACUACATT against CNDP1	inactive: 0.203
GGAGCUCAUUGAACGAUUUTT against PPP4R1	inactive: -0.911
GUUUAGAAGGUAUAAGGUUTT against PPA1	inactive: -0.0865

Another view of some results above.
Sequence,median seed-adjusted z-score
GCACCAUCUAUGACUAUGATT against GPX5,inactive: 0.0205
GGACAAGUGUUAUCGCUUATT against MASTL,inactive: -0.195
GCAUGAGCCCAGAUGUGAATT against LIMK1,inactive: -0.428
GCUGAAGAGUUUACCUAUATT against VWA5A,inactive: 0
GCGCGUCAAGCAGACUUUCTT against DUSP15,inactive: 0
GGACUCUGAUAGCAGUUCATT against UBE2Z,inactive: 0.0572

Individual results from the results shown.
median seed-adjusted z-score with CUAGGGACCUAUUAAAAGATT against DHX30 reads inactive: 0.335
median seed-adjusted z-score with GCUCUAAGGUUACGGAAGATT against MCOLN2 reads inactive: -0.0234

Next results follow:

Sequence	median seed-adjusted z-score
GGAUUUGCCCUGACAAAAATT against ZRANB2	inactive: 0.441
CAUCUUCACUCAUGCAAGATT against GBP6	inactive: -0.0703
GGAGUUGCAGAAAUCCUUUTT against POLH	inactive: -0.446
AGCAAUAACUCGUGUAGCATT against EFNA2	inactive: -0.314
GCCUUAAGUUGGAGAGUAATT against ZNF215	inactive: 0.485
CAAUAUGAAGGUCGAAUUATT against TPR	active: -1.03
CGAUCUGAGGAAUAUCAAUTT against TTLL6	inactive: -0.661
AGACGGUGGUGCCUCAAAATT against ZNF496	inactive: -0.971
GGGCAGUUCUUGCAACCAUTT against ALDH1A2	inactive: 0.564
CAAUAGGAUUGGUCACCAATT against PNPT1	inactive: 0.0729
CCAGUGUAUUAGUAAGAGUTT against PLCH1	inactive: -0.00634
GGUCAGAUCAUUUGAUUCATT against RAB9A	inactive: 0.247
GCAUCAUCCAGAACACGGATT against ARHGEF18	inactive: 0.586
GCGGCAUGCUGGUAAAUCATT against PRDM10	inactive: 0.344
AGAUCGACAUGUUUCUCAATT against ZBED1	inactive: 0.0567
GGACAGACUCGUCUAAUCATT against PLAA	inactive: -0.192
CACAGGAAAUUGUUCGGCATT against LIN9	inactive: 0
CUUACUCUUUAGCUCAAAATT against PCDHB1	inactive: 0.342
GAGUCUGUUUUACGACAAATT against TMPRSS11D	inactive: -0.0643
ACAAAUGUCUGAAAGUCUUTT against ZNF181	inactive: -0.154
AGGUCUCAGAUGAAGCGGUTT against PPM1B	inactive: 0
GACAAAACAAUGAAGCAGATT against GFM2	inactive: 0.26

Sequence	median seed-adjusted z-score
GCAAUUCCCAAGAUCCUUATT against LAMB1	active: 1.07
GGUCCUAAUCUGCAGCUGATT against COG4	inactive: -0.508
CCAUCUCGACUGACAAGAATT against TNNI3K	inactive: -0.178
CACCAGGACCAGUUAAAAATT against MVD	inactive: -0.561
AAUUCUUCACGGUAAGAAATT against RAB6A	inactive: 0.102
GAACCUGCUUUACUAUACATT against TRPV2	inactive: -0.227
CGACAAGUCUUCGACCUGATT against DGKZ	inactive: 0
GGACUGUUUUUGAUACUAATT against FKBP3	inactive: -0.102
GGACCACAGUCAAGACGAUTT against CEACAM1	inactive: -0.211
CCGACGGGAUGGAAUAUUUTT against ZBTB39	inactive: -0.209
GAAUCAACUUAACAAAACATT against OXTR	inactive: -0.557
GAAUUGGAGAGGCAACAAATT against LMO7	inactive: 0.417
GCAACGCAGUUCGGAGUUATT against CADPS2	inactive: -0.0213
GGACAUAGGCACAAACUAATT against TNKS2	inactive: 0.0545
GCUCAUCCUGUCUCAUAAATT against EIF2B3	inactive: -0.271
GGCUGUAAACUGCGCAUCATT against APOBEC2	inactive: 0.232
CACCUAUUUUGAAGGUAGATT against ZNF518A	inactive: -0.252
CCAUCACCAGAAUCGCUAUTT against P11	inactive: 0.14
CAUCCAGACCUGUUCCAAATT against SCG2	inactive: 0.155

Reference: PubChem BioAssay AID1347426 (Functional Genomics Laboratory (NCATS/FGL), 2020)
